The supplement of paper PMC4604168 (melanoma cell lines)
Some of the results follow. Many values rest on one well or one pass, so single values are uncertain.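 Imaging used 1,536-well plates; nuclei positive for cleaved PARP by antibody were divided by total DNA-stained nuclei to yield the apoptosis fraction. Doses for screening kept most cells viable, and cell lines differ markedly in resting and induced cleaved-PARP levels.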

Experiments:
Experiment in all cases: cleaved PARP positive nuclei fraction relative to DMSO control; melanoma cells; higher = more apoptosis
Conditions in all cases: library dose: low library concentration; 72 h
[1] = test system: CBRC034 (line from a melanoma biopsy)
[2] = test system: COLO792
[3] = test system: COLO800
[4] = test system: COLO829
[5] = test system: G361
[6] = test system: IPC-298
[7] = test system: IST-MEL1
[8] = test system: LB2518-MEL
[9] = test system: LOXIMVI

SMILES | cleaved PARP positive nuclei fraction [1] | cleaved PARP positive nuclei fraction [2] | cleaved PARP positive nuclei fraction [3] | cleaved PARP positive nuclei fraction [4] | cleaved PARP positive nuclei fraction [5] | cleaved PARP positive nuclei fraction [6] | cleaved PARP positive nuclei fraction [7] | cleaved PARP positive nuclei fraction [8] | cleaved PARP positive nuclei fraction [9]
Cc1cc(SCc2sc(-c3ccc(C(F)(F)F)c(F)c3)nc2C)ccc1OCC(=O)O + Cc1cc([N+](=O)[O-])ccc1NS(=O)(=O)c1cc(Cl)ccc1Cl [FH535] (first compound 2 µM, partner dose 1 µM) | 21.4% | 91.2% | 87.6% | 131% | 26.8% | 106% | 41.7% | 75% | 1100%
O=C(Nc1cccc(Cl)c1)Nc1ncc(CCNc2ncnc3ccsc23)s1 + O=C(Oc1ccc([N+](=O)[O-])cc1)N1CCC(C(O)(c2ccc3c(c2)OCO3)c2ccc3c(c2)OCO3)CC1 [JZL184] (first compound 0.0008 µM, partner dose 1 µM) | 80.5% | 85.2% | 197% | 56.6% | 190% | 95.9% | 28.5% | 86.3% | 129%
COc1cc(Nc2ncc(F)c(Nc3ccc4c(n3)NC(=O)C(C)(C)O4)n2)cc(OC)c1OC [Tamatinib] + O=C(Oc1ccc([N+](=O)[O-])cc1)N1CCC(C(O)(c2ccc3c(c2)OCO3)c2ccc3c(c2)OCO3)CC1 [JZL184] (first compound 0.4 µM, partner dose 1 µM) | 122% | 166% | 139% | 151% | 103% | 93.7% | 22% | 90.5% | 78.9%
C[As](C)SC[C@H](NC(=O)CC[C@H](N)C(=O)O)C(=O)NCC(=O)O [Darinaparsin] + COc1ccc(COc2ccc(Cc3cnc(N)nc3N)cc2OC)cc1 [GW2580] (first compound 0.4 µM, partner dose 1 µM) | 123% | 71.3% | 28.5% | 68.2% | 74% | 56.6% | 115% | 163% | 92.5%
O=C(Oc1ccc([N+](=O)[O-])cc1)N1CCC(C(O)(c2ccc3c(c2)OCO3)c2ccc3c(c2)OCO3)CC1 + CC(C)CCN1c2nc(Nc3cc(F)c(O)c(F)c3)ncc2N(C)C(=O)C1C [BID1870] (first compound 1 µM, partner dose 0.2 µM) | 106% | 118% | 208% | 44.8% | 67.5% | 287% | 72.1% | 78.4% | 52.4%
CN(C)S(=O)(=O)c1ccc2c(c1)/C(=C/c1cc3c([nH]1)CCCC3)C(=O)N2 + O=C(Oc1ccc([N+](=O)[O-])cc1)N1CCC(C(O)(c2ccc3c(c2)OCO3)c2ccc3c(c2)OCO3)CC1 [JZL184] (first compound 0.4 µM, partner dose 1 µM) | 79.3% | 119% | 111% | 102% | 208% | 83.6% | 183% | 187% | 46.8%
COc1cc2c(Oc3ccc4[nH]c(C)cc4c3F)ncnc2cc1OCCCN1CCCC1 [cediranib] + O=C(Oc1ccc([N+](=O)[O-])cc1)N1CCC(C(O)(c2ccc3c(c2)OCO3)c2ccc3c(c2)OCO3)CC1 [JZL184] (first compound 0.4 µM, partner dose 1 µM) | 43.2% | 101% | 106% | 61.5% | 62.9% | 38.2% | 67.9% | 80.6% | 30.8%
NCC(=O)Nc1ccc(-n2nc(C(F)(F)F)cc2-c2ccc3c(ccc4ccccc43)c2)cc1 + C/C(O)=C(\C#N)C(=O)Nc1cc(Br)ccc1Br [LFM-A13] (first compound 1 µM, partner dose 2 µM) | 97.9% | 137% | 90.9% | 107% | 108% | 82% | 64.3% | 92.1% | 40.9%
C=CCn1c(=O)c2cnc(Nc3ccc(N4CCN(C)CC4)cc3)nc2n1-c1cccc(C(C)(C)O)n1 + Cc1cc(SCc2sc(-c3ccc(C(F)(F)F)c(F)c3)nc2C)ccc1OCC(=O)O [GW0742] (first compound 0.02 µM, partner dose 2 µM) | 88.3% | 42.6% | 65.6% | 181% | 62.2% | 30.9% | 40.8% | 196% | 59.2%
CC1(C)NC(=O)N(c2ccc([N+](=O)[O-])c(C(F)(F)F)c2)C1=O [nilutamide] + O=C(Oc1ccc([N+](=O)[O-])cc1)N1CCC(C(O)(c2ccc3c(c2)OCO3)c2ccc3c(c2)OCO3)CC1 [JZL184] (first compound 1 µM, partner dose 1 µM) | 170% | 62.6% | 86.6% | 80.8% | 100% | 136% | 61% | 158% | 33.7%
CC(C)(C)c1cnc(CSc2cnc(NC(=O)C3CCNCC3)s2)o1 + Cc1cc(SCc2sc(-c3ccc(C(F)(F)F)c(F)c3)nc2C)ccc1OCC(=O)O [GW0742] (first compound 0.01 µM, partner dose 2 µM) | 76.5% | 158% | 112% | 115% | 68.8% | 61.2% | 69.9% | 179% | 56.2%
C[As](C)SC[C@H](NC(=O)CC[C@H](N)C(=O)O)C(=O)NCC(=O)O [Darinaparsin] + O=C1NC(=O)/C(=C/c2ccc(-c3ccc(F)cc3O)o2)S1 [AS252424] (first compound 0.4 µM, partner dose 1 µM) | 110% | 199% | 28.5% | 102% | 81.4% | 127% | 26.3% | 93.6% | 107%
COc1cc(N2CCC(N3CCN(C)CC3)CC2)ccc1Nc1ncc(Cl)c(Nc2ccccc2S(=O)(=O)C(C)C)n1 + O=C(Oc1ccc([N+](=O)[O-])cc1)N1CCC(C(O)(c2ccc3c(c2)OCO3)c2ccc3c(c2)OCO3)CC1 [JZL184] (first compound 0.08 µM, partner dose 1 µM) | 92.1% | 116% | 224% | 188% | 123% | 164% | 211% | 76.8% | 54.3%
Cn1nnc2c(C(N)=O)ncn2c1=O [temozolomide] + Cc1cc(SCc2sc(-c3ccc(C(F)(F)F)c(F)c3)nc2C)ccc1OCC(=O)O [GW0742] (first compound 2 µM, partner dose 2 µM) | 76.5% | 66.1% | 29.1% | 113% | 83.4% | 33.5% | 47.2% | 71.8% | 61.2%
N#Cc1c(O)c2c(-c3ccc(-c4ccccc4O)cc3)csc2[nH]c1=O + C/C(O)=C(\C#N)C(=O)Nc1cc(Br)ccc1Br [LFM-A13] (first compound 2 µM, partner dose 2 µM) | 103% | 103% | 81.4% | 78.4% | 129% | 95.1% | 92.2% | 167% | 55.9%
O=C(Nc1cccc(Cl)c1)Nc1ncc(CCNc2ncnc3ccsc23)s1 + C/C(O)=C(\C#N)C(=O)Nc1cc(Br)ccc1Br [LFM-A13] (first compound 0.0008 µM, partner dose 2 µM) | 76% | 105% | 87.4% | 161% | 117% | 166% | 415% | 78.5% | 48.2%
O=C(CCCCCCC(=O)Nc1ccccc1)NO [vorinostat] + Cc1cc(SCc2sc(-c3ccc(C(F)(F)F)c(F)c3)nc2C)ccc1OCC(=O)O [GW0742] (first compound 0.08 µM, partner dose 2 µM) | 71% | 151% | 76.3% | 73.1% | 15.7% | 87.5% | 188% | 86.7% | 44.3%
Cc1cc(SCc2sc(-c3ccc(C(F)(F)F)c(F)c3)nc2C)ccc1OCC(=O)O + c1cc(-c2cnn3cc(-c4ccc(OCCN5CCCCC5)cc4)cnc23)ccn1 [Dorsomorphin] (first compound 2 µM, partner dose 0.4 µM) | 54.9% | 168% | 99.8% | 198% | 108% | 81.6% | 43.9% | 160% | 18.5%
CC(C)(C)c1cnc(CSc2cnc(NC(=O)C3CCNCC3)s2)o1 + C/C(O)=C(\C#N)C(=O)Nc1cc(Br)ccc1Br [LFM-A13] (first compound 0.01 µM, partner dose 2 µM) | 85.1% | 93.5% | 91.8% | 41% | 76% | 59.6% | 42.3% | 93.5% | 78.9%
Cc1cc(SCc2sc(-c3ccc(C(F)(F)F)c(F)c3)nc2C)ccc1OCC(=O)O + O=c1cc(-c2cccc3c2Sc2ccccc2S3)oc(N2CCOCC2)c1 [KU55933] (first compound 2 µM, partner dose 1 µM) | 72.5% | 85.1% | 41% | 91.5% | 61.9% | 40.6% | 179% | 221% | 33.5%
COc1ccc2c(c1)CCC1C2CCC2(C)C(NCCCCCCN3C(=O)C=CC3=O)CCC12 (configuration not stated) + C/C(O)=C(\C#N)C(=O)Nc1cc(Br)ccc1Br [LFM-A13] (first compound 0.4 µM, partner dose 2 µM) | 59.9% | 182% | 111% | 136% | 108% | 78.8% | 151% | 93.1% | 59.2%
C[As](C)SC[C@H](NC(=O)CC[C@H](N)C(=O)O)C(=O)NCC(=O)O [Darinaparsin] + CCN(CC)CCCCNc1ncc2cc(-c3cc(OC)cc(OC)c3)c(NC(=O)NC(C)(C)C)nc2n1 [PD173074] (first compound 0.4 µM, partner dose 0.1 µM) | 34.8% | 194% | 110% | 113% | 122% | 25.2% | 107% | 76% | 13.5%
COc1ccc(-c2ccc3c(N4CCOCC4)nc(N4C[C@@H](C)O[C@@H](C)C4)nc3n2)cc1CO + C/C(O)=C(\C#N)C(=O)Nc1cc(Br)ccc1Br [LFM-A13] (first compound 0.02 µM, partner dose 2 µM) | 41.3% | 99.3% | 10.6% | 113% | 122% | 45% | 253% | 167% | 44%

Reformatted as a markdown table: part of the list above.

| SMILES | cleaved PARP positive nuclei fraction [1] | cleaved PARP positive nuclei fraction [2] | cleaved PARP positive nuclei fraction [3] | cleaved PARP positive nuclei fraction [4] | cleaved PARP positive nuclei fraction [5] | cleaved PARP positive nuclei fraction [6] | cleaved PARP positive nuclei fraction [7] | cleaved PARP positive nuclei fraction [8] | cleaved PARP positive nuclei fraction [9] |
| --- | --- | --- | --- | --- | --- | --- | --- | --- | --- |
| O=C(CCCCCCC(=O)Nc1ccccc1)NO [vorinostat] + Cc1cc(SCc2sc(-c3ccc(C(F)(F)F)c(F)c3)nc2C)ccc1OCC(=O)O [GW0742] (first compound 0.08 µM, partner dose 2 µM) | 71% | 151% | 76.3% | 73.1% | 15.7% | 87.5% | 188% | 86.7% | 44.3% |
| CC(C)(C)c1cnc(CSc2cnc(NC(=O)C3CCNCC3)s2)o1 + C/C(O)=C(\C#N)C(=O)Nc1cc(Br)ccc1Br [LFM-A13] (first compound 0.01 µM, partner dose 2 µM) | 85.1% | 93.5% | 91.8% | 41% | 76% | 59.6% | 42.3% | 93.5% | 78.9% |
